Assay results published in the supplement of paper PMC12819154, “High-throughput peptide-centric local stability assay extends protein–ligand identification to membrane proteins, tissues and bacteria” (Nature Structural & Molecular Biology, 2025).
The other results are listed elsewhere or left out. Most values lie at the level of the controls, where differences are scatter.

By UniProt entry, the sequences of proteins in these tests, tags left out. Where a name states a change or a piece, a line headed by the entry shows the natural chain unless it says otherwise.
UniProt Q7L7V1: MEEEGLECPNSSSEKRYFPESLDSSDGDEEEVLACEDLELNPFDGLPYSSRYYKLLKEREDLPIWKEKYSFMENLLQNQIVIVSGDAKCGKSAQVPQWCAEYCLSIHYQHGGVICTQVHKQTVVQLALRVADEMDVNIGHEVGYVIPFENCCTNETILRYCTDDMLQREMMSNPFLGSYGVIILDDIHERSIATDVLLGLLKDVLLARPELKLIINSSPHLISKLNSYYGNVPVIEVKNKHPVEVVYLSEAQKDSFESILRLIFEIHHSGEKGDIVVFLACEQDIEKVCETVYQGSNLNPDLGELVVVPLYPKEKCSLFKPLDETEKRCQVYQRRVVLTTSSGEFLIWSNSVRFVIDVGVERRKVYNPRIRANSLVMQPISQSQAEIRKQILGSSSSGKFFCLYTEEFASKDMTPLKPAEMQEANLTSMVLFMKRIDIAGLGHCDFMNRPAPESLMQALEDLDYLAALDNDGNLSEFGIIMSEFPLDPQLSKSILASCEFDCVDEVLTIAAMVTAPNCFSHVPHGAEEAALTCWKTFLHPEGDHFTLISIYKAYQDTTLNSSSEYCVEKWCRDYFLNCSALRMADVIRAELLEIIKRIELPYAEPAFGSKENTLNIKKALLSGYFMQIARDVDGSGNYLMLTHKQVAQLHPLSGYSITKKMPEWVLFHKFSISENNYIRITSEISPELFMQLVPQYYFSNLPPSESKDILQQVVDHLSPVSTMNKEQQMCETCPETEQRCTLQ
UniProt Q86VK4: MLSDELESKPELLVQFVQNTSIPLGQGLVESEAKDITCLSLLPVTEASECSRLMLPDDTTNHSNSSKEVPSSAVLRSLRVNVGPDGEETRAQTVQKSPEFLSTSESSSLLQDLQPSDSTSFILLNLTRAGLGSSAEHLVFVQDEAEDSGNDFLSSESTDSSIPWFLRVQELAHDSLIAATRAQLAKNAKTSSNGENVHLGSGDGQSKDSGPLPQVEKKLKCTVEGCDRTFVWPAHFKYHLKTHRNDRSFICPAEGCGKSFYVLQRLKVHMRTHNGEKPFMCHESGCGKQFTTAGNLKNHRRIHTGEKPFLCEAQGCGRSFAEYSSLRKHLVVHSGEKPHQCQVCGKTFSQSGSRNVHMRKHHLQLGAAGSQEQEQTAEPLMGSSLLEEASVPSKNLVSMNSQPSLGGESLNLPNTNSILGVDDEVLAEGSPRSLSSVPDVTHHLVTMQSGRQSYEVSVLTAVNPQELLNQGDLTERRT
UniProt Q7L2E3: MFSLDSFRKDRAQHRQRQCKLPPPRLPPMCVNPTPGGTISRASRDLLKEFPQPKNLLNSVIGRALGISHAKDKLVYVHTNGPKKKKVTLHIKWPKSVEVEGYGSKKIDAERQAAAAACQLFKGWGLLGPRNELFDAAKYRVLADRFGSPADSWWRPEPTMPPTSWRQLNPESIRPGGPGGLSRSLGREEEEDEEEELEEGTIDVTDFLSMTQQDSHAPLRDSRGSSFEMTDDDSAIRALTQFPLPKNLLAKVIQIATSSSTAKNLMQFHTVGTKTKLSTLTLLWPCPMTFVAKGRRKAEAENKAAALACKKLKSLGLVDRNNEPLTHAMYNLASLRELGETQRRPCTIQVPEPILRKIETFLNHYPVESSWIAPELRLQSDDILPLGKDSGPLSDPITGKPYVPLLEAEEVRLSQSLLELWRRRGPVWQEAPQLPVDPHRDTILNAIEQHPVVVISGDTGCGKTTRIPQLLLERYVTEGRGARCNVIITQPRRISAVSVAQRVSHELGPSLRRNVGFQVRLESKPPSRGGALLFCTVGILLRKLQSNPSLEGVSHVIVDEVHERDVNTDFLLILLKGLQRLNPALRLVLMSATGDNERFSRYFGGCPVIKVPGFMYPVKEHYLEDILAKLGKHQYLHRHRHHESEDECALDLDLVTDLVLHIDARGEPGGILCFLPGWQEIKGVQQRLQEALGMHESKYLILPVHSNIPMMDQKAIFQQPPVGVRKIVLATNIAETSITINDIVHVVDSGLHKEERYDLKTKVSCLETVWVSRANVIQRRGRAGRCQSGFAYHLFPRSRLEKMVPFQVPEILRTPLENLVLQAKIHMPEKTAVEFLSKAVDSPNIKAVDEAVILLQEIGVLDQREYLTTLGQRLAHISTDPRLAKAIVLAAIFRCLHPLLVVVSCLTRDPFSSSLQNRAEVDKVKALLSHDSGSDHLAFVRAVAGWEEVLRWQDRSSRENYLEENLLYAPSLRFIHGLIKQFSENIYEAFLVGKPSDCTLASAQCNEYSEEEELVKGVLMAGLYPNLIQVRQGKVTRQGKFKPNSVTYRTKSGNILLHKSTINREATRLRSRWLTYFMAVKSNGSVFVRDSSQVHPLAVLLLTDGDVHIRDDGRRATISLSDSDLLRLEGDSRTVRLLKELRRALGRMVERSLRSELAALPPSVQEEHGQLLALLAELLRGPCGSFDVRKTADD
UniProt Q6ZN17: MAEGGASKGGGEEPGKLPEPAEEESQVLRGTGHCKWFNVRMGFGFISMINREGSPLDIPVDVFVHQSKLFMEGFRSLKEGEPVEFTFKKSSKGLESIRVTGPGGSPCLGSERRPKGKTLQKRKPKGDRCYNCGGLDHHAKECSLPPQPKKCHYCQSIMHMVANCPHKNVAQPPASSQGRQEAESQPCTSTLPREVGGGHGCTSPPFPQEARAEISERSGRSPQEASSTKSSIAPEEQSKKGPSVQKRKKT
UniProt Q71F56: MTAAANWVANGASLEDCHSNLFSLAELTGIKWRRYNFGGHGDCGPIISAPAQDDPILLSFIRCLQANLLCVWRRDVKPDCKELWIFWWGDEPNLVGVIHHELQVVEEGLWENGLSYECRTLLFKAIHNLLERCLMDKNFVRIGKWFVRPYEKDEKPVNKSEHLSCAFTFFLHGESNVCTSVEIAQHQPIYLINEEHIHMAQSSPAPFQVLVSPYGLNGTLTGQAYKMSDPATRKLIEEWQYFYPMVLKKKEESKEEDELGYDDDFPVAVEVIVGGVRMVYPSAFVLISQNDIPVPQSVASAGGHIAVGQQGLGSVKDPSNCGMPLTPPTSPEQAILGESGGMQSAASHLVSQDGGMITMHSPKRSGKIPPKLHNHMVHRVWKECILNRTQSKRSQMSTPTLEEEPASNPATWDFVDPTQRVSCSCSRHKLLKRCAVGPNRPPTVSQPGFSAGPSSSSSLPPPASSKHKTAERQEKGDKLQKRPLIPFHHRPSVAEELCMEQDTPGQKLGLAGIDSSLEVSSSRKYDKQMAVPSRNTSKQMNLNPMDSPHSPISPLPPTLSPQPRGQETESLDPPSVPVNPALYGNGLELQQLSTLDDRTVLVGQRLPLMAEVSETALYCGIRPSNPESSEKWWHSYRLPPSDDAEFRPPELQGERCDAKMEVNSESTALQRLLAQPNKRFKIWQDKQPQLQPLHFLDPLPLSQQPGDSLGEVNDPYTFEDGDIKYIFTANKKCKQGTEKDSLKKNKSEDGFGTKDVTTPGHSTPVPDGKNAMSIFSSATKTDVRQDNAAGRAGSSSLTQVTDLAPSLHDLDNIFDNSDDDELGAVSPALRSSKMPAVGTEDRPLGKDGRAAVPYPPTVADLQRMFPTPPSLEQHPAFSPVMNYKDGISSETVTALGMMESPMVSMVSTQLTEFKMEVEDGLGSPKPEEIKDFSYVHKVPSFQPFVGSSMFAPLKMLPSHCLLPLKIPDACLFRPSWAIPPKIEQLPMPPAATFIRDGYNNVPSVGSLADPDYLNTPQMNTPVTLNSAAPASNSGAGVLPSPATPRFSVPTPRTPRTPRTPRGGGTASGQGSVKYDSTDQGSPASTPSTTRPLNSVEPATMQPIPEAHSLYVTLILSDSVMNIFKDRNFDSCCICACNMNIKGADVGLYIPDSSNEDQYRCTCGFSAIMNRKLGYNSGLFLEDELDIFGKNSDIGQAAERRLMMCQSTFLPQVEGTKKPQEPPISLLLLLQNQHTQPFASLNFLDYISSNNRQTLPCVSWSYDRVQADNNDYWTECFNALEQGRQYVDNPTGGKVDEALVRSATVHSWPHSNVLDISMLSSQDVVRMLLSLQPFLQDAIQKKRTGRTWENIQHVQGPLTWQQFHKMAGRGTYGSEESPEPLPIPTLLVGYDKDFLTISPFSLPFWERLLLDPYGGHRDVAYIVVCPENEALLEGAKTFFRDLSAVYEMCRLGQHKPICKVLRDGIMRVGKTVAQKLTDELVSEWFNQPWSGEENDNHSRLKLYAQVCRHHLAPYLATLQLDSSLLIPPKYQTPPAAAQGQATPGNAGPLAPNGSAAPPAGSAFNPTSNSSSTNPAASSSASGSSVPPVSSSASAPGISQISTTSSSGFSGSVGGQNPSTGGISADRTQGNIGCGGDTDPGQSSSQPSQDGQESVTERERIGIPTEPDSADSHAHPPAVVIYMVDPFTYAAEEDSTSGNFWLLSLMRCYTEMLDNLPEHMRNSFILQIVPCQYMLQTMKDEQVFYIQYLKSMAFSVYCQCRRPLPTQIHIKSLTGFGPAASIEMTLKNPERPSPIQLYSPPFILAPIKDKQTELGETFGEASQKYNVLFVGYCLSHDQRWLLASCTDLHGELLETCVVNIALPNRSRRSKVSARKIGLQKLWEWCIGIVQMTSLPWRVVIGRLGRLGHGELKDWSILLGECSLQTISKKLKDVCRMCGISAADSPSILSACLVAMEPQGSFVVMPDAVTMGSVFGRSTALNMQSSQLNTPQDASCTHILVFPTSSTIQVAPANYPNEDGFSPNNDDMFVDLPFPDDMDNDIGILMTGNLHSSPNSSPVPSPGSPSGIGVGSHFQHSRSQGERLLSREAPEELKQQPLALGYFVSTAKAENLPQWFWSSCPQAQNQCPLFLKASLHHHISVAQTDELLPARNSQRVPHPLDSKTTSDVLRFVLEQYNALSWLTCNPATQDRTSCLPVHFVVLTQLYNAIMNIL
UniProt Q7Z4H8: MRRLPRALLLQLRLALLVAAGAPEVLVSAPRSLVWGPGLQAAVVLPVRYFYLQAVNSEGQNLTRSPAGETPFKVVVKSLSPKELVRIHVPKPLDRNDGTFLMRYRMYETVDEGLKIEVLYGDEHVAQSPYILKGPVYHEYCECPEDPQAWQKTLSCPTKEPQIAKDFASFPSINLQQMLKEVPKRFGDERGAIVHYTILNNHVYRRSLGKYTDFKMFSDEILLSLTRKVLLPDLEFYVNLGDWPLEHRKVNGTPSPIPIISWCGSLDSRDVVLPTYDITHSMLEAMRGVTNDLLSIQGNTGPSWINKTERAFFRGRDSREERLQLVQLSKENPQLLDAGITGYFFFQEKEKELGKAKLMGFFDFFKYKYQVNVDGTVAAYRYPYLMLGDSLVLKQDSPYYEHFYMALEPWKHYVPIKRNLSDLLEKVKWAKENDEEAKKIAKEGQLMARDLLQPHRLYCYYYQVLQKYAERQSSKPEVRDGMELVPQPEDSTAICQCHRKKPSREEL

Compound: CN[C@@H]1C[C@H]2O[C@@](C)([C@@H]1OC)n1c3ccccc3c3c4c(c5c6ccccc6n2c5c31)C(=O)NC4 [staurosporine]
Assay: log2 fold change of tryptic peptide abundance, ligand vs vehicle (limited proteolysis) (log2 ratio); higher = more trypsin-susceptible (destabilized)
Details: ligand concentration: 20 uM; sample: K562 cleared lysate; digestion: 4 min, 22 C (HT-PELSA RT4min, Orbitrap Astral)

Target: DHX32 (peptide sequence: QTVVQLALR, peptide start residue: 121) (UniProt Q7L7V1)
- log2 fold change: 0.507

Target: ZNF410 (peptide sequence: VQELAHDSLIAATR, peptide start residue: 168) (UniProt Q86VK4)
- log2 fold change: -0.175

Target: CAND1 (peptide sequence: TLEDPDLNVRR, peptide start residue: 1014) (UniProt Q86VP6)
- log2 fold change: 0.907

Target: DHX30 (peptide sequence: VTLHIKWPK, peptide start residue: 87) (UniProt Q7L2E3)
- log2 fold change: 0.727

Target: LIN28B (peptide sequence: EGEPVEFTFKK, peptide start residue: 79) (UniProt Q6ZN17)
- log2 fold change: -0.111

Target: MED13L (peptide sequence: LLAQPNKR, peptide start residue: 672) (UniProt Q71F56)
- log2 fold change: 0.123

Target: UniProt Q7Z4H8 (peptide sequence: TLSCPTKEPQIAK, peptide start residue: 153)
- log2 fold change: -0.152

Target: PHLDB1 (peptide sequence: ELEQQLQESAR, peptide start residue: 736) (UniProt Q86UU1)
- log2 fold change: 0.426
